From US8993515B2 (Valorisation-Recherche, Limited Partnership, priority 2012, dated 2015)

Key:
peptide synthesis = conditions: whole synthesis
[1] = general procedure: Fmoc solid-phase peptide synthesis; Polystyrene Rink Amide resin (0.64 mmol/g, 75-100 mesh); HBTU, DIEA; conditions: whole synthesis; for crude HPLC purity / final HPLC purity: 214 nm; for final purity (method not given): analytical LCMS and HPLC, C18 Phenomenex Gemini column

Substance | crude HPLC purity (peptide synthesis) [%] | final HPLC purity (peptide synthesis) [%] | isolated yield (peptide synthesis) [%] | crude HPLC purity [1] [%] | final HPLC purity [1] [%] | isolated yield ([1]; on Fmoc loading of Rink amide) [%] | final purity (method not given) [1] [%] | isolated yield ([1]; overall) [%]
His-D-Trp-Nap-Trp-D-Phe-Lys-NH2 | 21 | 99 | 7 | – | – | – | – | –
His-Nai-Ala-Trp-D-Phe-Lys-NH2 | – | – | – | 26 | 96 | 7 | – | –
His-D-Trp-Ala-Nap-D-Phe-Lys-NH2 | – | – | – | 29 | 99 | 11 | – | –
D-Arg-D-Tyr-Nai-D-Val-D-Glu-D-Leu-D-Ala-NH2 | – | – | – | 53 | 99 | 21 | – | –
His-D-Trp-Nai-Trp-D-Phe-Lys-NH2 | – | – | – | 29 | 99 | 5 | – | –
Nap-D-Trp-Ala-Trp-D-Phe-Lys-NH2 | – | – | – | 42 | 95 | 5 | – | –
His-Nap-Ala-Trp-D-Phe-Lys-NH2 | – | – | – | 37 | 99 | 9 | – | –
Nad-D-Trp-Ala-Trp-D-Phe-Lys-NH2 | – | – | – | 16 | 98 | 4 | – | –
D-Arg-D-Tyr-Nap-D-Val-D-Glu-D-Leu-D-Ala-NH2 | – | – | – | 49 | 99 | 19 | – | –
His-D-Trp-Ala-(N-amino-4-methyl-imidazolin-2-one)-D-Phe-Lys-NH2 | – | – | – | – | – | – | >99 | 6
His-D-Trp-Ala-Nai-D-Phe-Lys-NH2 | – | – | – | 14 | 99 | 6 | – | –
His-D-Trp-Ala-(N-amino-4-methyl-imidazolin-2-one)-L-Phe-Lys-NH2 | – | – | – | – | – | – | >99 | 4
His-D-Trp-Ala-Nad-D-Phe-Lys-NH2 | – | – | – | 20 | 99 | 3 | – | –
D-Arg-D-Tyr-Nad-D-Val-D-Glu-D-Leu-D-Ala-NH2 | – | – | – | 19 | 99 | 5 | – | –
His-D-Trp-Ala-Trp-Nap-Lys-NH2 | – | – | – | 8 | 99 | 2 | – | –
